Experimental data as given in the supplement of paper PMC5407854, “Inhibitor of ppGalNAc-T3-mediated O-glycosylation blocks cancer cell invasiveness and lowers FGF23 levels” (eLife, 2017).
Over roughly 1,700 compounds, “T3 sensor activation Q score (MG/GFP ratio z-score vs DMSO controls)” has its median near 0.25; the highest 2% begin near 1.9. The list shows a part of the results.

What follows are compounds tested on ppGalNAc-T3 sensor (assay: T3 sensor activation Q score (MG/GFP ratio z-score vs DMSO controls) (SD units); higher = more sensor activation (inhibition of ppGalNAc-T3 glycosylation)). Settings: HEK293 sensor cells; 10 µM; 6 h.
Procedure: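 Cells were treated with compound at 10 uM for 6 h, then MG/GFP ratio was read by flow cytometry (10,000 cells per well, duplicate wells). Q = (R - R_neg)/SD_neg relative to DMSO vehicle controls; the signal rises when the glycosyltransferase is inhibited.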

| SMILES | T3 sensor activation Q score |
| --- | --- |
| CN1CCN(c2ccc([N+](=O)[O-])c3no[n+]([O-])c23)CC1 | -0.95 |
| COc1c(OP2(=S)OCC(C)(C)CO2)cnn(C2CCCCC2)c1=O | 0.85 |
| CC(=O)OC1CCC2(C)C(CCC3C2CC(=O)C2(C)C3CC(N3CC3)C2C(C)=O)C1 (stereo not given) | 0.25 |
| N.N.[Cl][Pt][Cl] | 0.05 |
| CC1=C(O)C(=O)C=C2C1=CC=C1[C@@]2(C)CC[C@@]2(C)[C@@H]3C[C@](C)(C(=O)O)CC[C@]3(C)CC[C@]12C | -4.6 |
| O=P(Oc1ccccc1)(Oc1ccccc1)c1ccccc1 | -0.75 |
| O=C(O)CCCc1ccc(N(CCCl)CCCl)cc1 | 0.55 |
| c1ccc2nc(OCCN3CC3)ccc2c1 | 1 |
| C=CCCC1(C2=CCCCC2)C(=O)NC(=O)NC1=O | 0.55 |
| Cc1ccccc1-n1c(C=Cc2ccccn2)nc2ccccc2c1=O | -0.25 |
| COc1ccc(C2=CC(c3ccc(OC)c(OC)c3)c3c(c4ccccc4oc3=O)O2)cc1OC (stereo not given) | -1.85 |
| CC(C)OC1CCCC(O)C1CC(=O)O (stereo not given) | 0.15 |
| Cn1cnc([N+](=O)[O-])c1N=C(N)N | 0.25 |
| CNC(=O)Oc1c(C)[nH]ccc1=O | 1.25 |
| O=S(=O)(F)c1ccc2nc(-c3cccc(Sc4ccccc4)c3)cc(Cl)c2c1 | -0.55 |
| Cc1ccc(C=C2C(Cl)=C(Cl)C(Cl)=C2Cl)cc1 | -1.65 |
| COC(=O)c1nc(-c2ccc3c(n2)C(=O)C(N)=C(OC)C3=O)c(N)c(-c2ccc(OC)c(OC)c2O)c1C | -1.65 |
| OCC1CN1C1CCCCC1 (stereo not given) | 1 |
| Cc1ccc(-n2c(O)c(C=N)c(=O)n(-c3ccc(C)cc3)c2=O)cc1 | 0.5 |
| O=[N+]([O-])c1cc(-c2ccc([As](=O)(O)O)cc2)ccc1[As](=O)(O)O | -0.45 |

Some values from the entries so far.
O=S(=O)(F)c1ccc2nc(-c3cccc(Sc4ccccc4)c3)cc(Cl)c2c1 | T3 sensor activation Q score: -0.55
O=C(O)CCCc1ccc(N(CCCl)CCCl)cc1 | T3 sensor activation Q score: 0.55

(list continues)

| SMILES | T3 sensor activation Q score |
| --- | --- |
| CC12CCC3C(CC=C4CC(O)CCC43C)C1C/C(=C\N1CCCC1)C2=O (stereo not given) | 1.9 |
| C/C=C(/C)C(=O)O[C@H]1CCN2CC=C(COC(=O)[C@@](O)([C@H](C)OC)C(C)(C)O)[C@H]12 | -0.45 |
| CC(Cc1ccccc1)NC(N)=O (stereo not given) | 1.55 |
| COc1cccc2c1C(=O)c1c(O)c3c(c(O)c1C2=O)CC(O)(C(C)=NO)CC3OC1CC(N)C(O)C(C)O1 (stereo not given) | 0.1 |
| Cc1ncc([N+](=O)[O-])n1CCOC(N)=O | 1.1 |
| CCC1CN1P1(=O)OCC(C)([N+](=O)[O-])CO1 (stereo not given) | 0.9 |
| COC[C@H]1OC(=O)c2coc3c2[C@@]1(C)C1=C(C3=O)[C@@H]2CCC(=O)[C@@]2(C)C[C@H]1OC(C)=O | 0.15 |
| CNC(=O)Oc1ccc(N(C)C)cc1C(C)C | 0 |
| c1ccc2c(c1)Sc1ccccc1N2CC1CN2CCC1CC2 (stereo not given) | -0.15 |
| CC12CCC3c4ccc(OC(=O)N(CCCl)CCCl)cc4CCC3C1CCC2O (stereo not given) | -0.45 |
| NC(=O)c1ccc(C(=O)Nc2ccc([As](=O)(O)O)cc2)cc1 | -0.6 |
| CSc1nc(C)c(Br)c(N2CC2)n1 | 0.9 |
| CCN1CC2C3CCC(C)(O3)C2C1 (stereo not given) | 0.7 |
| C[C@H]1CC[C@H]2NCCN[C@H]2C1 | 0.65 |
| CC(=O)Nc1cccc([As](=O)(c2cccc(NC(C)=O)c2)c2cccc(NC(C)=O)c2)c1 | 0.6 |
| CC1Oc2cc3c(-c4c(O)cc(O)c5c(O)c6c(cc45)OC(C)C(C)C6=O)c(O)cc(O)c3c(O)c2C(=O)C1C (stereo not given) | -1.45 |
| C=Cc1cc(OC)c2c(c1)c(=O)oc1c2cc(OC)c2c(O)ccc(C3OC(C)C(O)C(C)(O)C3O)c21 (stereo not given) | -0.3 |
| N[C@@H](Cc1ccc(N(CCCl)CCCl)cc1)C(=O)O | 0.05 |
| O=C1NC(=O)C(=Cc2csc3ccccc23)C(=O)N1 | -0.05 |
| CCC1CCC(C)N(N=O)C1 (stereo not given) | 1.05 |
